Laboratory results taken from paper PMC12040169 (PLOS Biology, 2025).
Some of the results follow.

system: T1, CTL2-GFP (C. trachomatis L2/434/Bu, GFP-expressing); design: species or system HeLa; Intracellular C. trachomatis growth in HeLa cells, bulk GFP fluorescence relative to DMSO; conditions: bulk GFP, single well; 28.5 h, 10 µM; inhibitor
T1 construct: L2/434/Bu, GFP-expressing

In order of rising “% of control remaining” value:
1. COCCn1c(SCC(=O)N2CCCc3ccccc32)nc(O)cc1=O [CBK304191]  63.7427%
2. COc1ccc(-c2cc(C(=O)N/N=C/c3c(C)[nH]c4ccccc34)[nH]n2)cc1 [CBK262884]  83.2264%
3. Cc1cccc(-n2nc3c4nonc4ccc3[n+]2[O-])c1C [CBK264626]  100%
4. COc1cc(CN2CCN(C(=O)c3cccnc3)CC2)cc(OC)c1O [CBK265210G]  100%
5. COc1ccc(Cl)cc1NC(=O)C(=O)NCC1CCCO1 (stereo not drawn) [CBK263823]  100%
6. CC(C)Nc1nccnc1-c1ccc(CO)cc1 [CBK088519]  100.833%
7. Cn1c(CCC(=O)Nc2c[nH]c3ccccc23)nc2ccccc21 [CBK282507]  103.327%
8. CCOc1ccccc1CNCc1ccccn1 [CBK268041C]  103.471%
9. NC(=O)c1ccc(C(=O)OCc2ccc(-c3ccccc3)cc2)cc1 [CBK297736]  104.566%
10. CCc1nc(COC(=O)C2CCN(C(=O)c3ccc(F)cc3)CC2)cs1 [CBK305725]  105.587%
11. COc1ccc(-c2cc3cccn(CC(=O)N(C)C)c-3n2)cc1 [CBK285382]  106.43%
12. Cc1ccc(C2CCCN2C(=O)C(C)Cn2cncn2)cc1C (stereo not drawn) [CBK282213]  106.924%
13. O=C(c1cccnc1)C1CCN(C(=O)Cc2cccc(F)c2)CC1 [CBK283506]  108.038%
14. COc1cc2c(=O)n(C)c3nncn3c2cc1OC [CBK288182]  108.351%
15. COc1cc(CNC(=O)N2CCN(C3CCN(C)CC3)CC2)cc(OC)c1OC [CBK155893]  108.57%
16. O=C(c1c(NS(=O)(=O)c2ccc3ccccc3c2)sc2c1CCCC2)N1CCOCC1 [CBK028636]  109.111%
17. NC(=O)[C@H]1C[C@@H](O)[C@H](O)[C@H]2[C@@H]1S/C(=N\c1ccc(Cl)cc1)N2Cc1ccccc1 [CBK288940]  109.39%
18. O=C(CSc1nc2[nH]ncc2c(=O)n1-c1ccccc1)Nc1nsc(-c2ccccc2)n1 [CBK266486]  110.666%
19. O=C(O)C(=C/C=C/Br)C(=O)O [CBK260906]  110.817%
20. CCc1cn(CC(C(=O)OC)N(C)C)c(=O)[nH]c1=O (stereo not drawn) [CBK289706]  111.306%
21. O=C(CN1C(=O)N2CCN=C2c2ccccc21)NC1CCCC1 [CBK283959]  112.828%
22. O=C1CC(N2CCN(C3CC(=O)N(Cc4ccccc4)C3=O)CC2)C(=O)N1Cc1ccccc1 (stereo not drawn) [CBK269198]  114.792%
23. COCCOC1CN(Cc2cn(-c3ccc(Br)cc3)nc2C(C)C)C1 [CBK304852]  115.165%
24. COC(=O)C(C)(C)NC(=O)c1ccn(-c2cc(C)ccc2OC)n1 [CBK305989]  115.522%
25. O=C(O)c1cc(NC(=O)c2cccc(N3C(=O)c4ccccc4C3=O)c2)cc(C(=O)O)c1 [CBK263338]  116.982%
26. CCOc1ccc(S(=O)(=O)N2CCCC(C(=O)NCCO)C2)cc1 (stereo not drawn) [CBK269968]  118.105%
27. COc1ccc(/C=C/C(=O)O)cc1S(=O)(=O)N1CCCC1 [CBK058388]  121.15%
28. COc1ccc2[nH]c3c(c2c1)CCNC31CCN(CCC2CCCCC2)C1 (stereo not drawn) [CBK040111T]  122.359%
29. Cc1cccc(C)c1OCC(=O)NC(C)C(=O)O (stereo not drawn) [CBK287185]  122.534%
30. CN(C)CC1CCCCN1C(=O)[C@@H]1C[C@@H]2C=C[C@H]1C2 (stereo partly drawn) [CBK282086]  124.815%
31. COc1cc(/C=C2\SC(=N)NC2=O)cc(Cl)c1OS(=O)(=O)c1ccc(NC(C)=O)cc1 [CBK264502]  125.687%
32. O=C(NC(=O)C1CCN(CCc2ccc3c(c2)CCO3)CC1)Nc1ccccc1Cl [CBK035147]  126.014%
33. CCN(CC)C(=O)C1CCCN(C(=O)NCCc2ccc(OC)c(OC)c2)C1 (stereo not drawn) [CBK156134]  126.363%
34. c1cncc(COc2cncc(OC3CCN(CCN4CCOCC4)C3)n2)c1 (stereo not drawn) [CBK084463]  128.704%
35. Nc1nccnc1C(=O)N1CCN(C(=O)Cc2c[nH]c3ccccc23)CC1 [CBK298339]  129.301%
36. CN1CCN(c2nccnc2-c2cccnc2)CC1 [CBK036612]  130.46%
37. Oc1c2c(nn1Cc1ccccc1)CCCC2 [CBK089898]  131.013%
38. COc1ccc(Cl)cc1NC(=O)Cn1nc(-c2ccccc2)ccc1=O [CBK270124]  133.656%
39. CCOC(=O)CSc1nc2ccc(I)cc2c(=O)n1Cc1ccccc1 [CBK266602]  133.871%
40. CCC(Oc1ccccc1)C(=O)Nc1cc(C)on1 (stereo not drawn) [CBK288152]  133.971%
41. CC(C)C(NC(=O)CN1CSCC1=O)c1ccc(C(C)(C)C)cc1 (stereo not drawn) [CBK297899]  139.583%
42. CCc1nn(CC(=O)N2CCCCC2)c(=O)c2cc3oc(C)cc3n12 [CBK283575]  139.974%
43. CCOc1ccc(Cl)cc1S(=O)(=O)NCCO [CBK269996]  141.413%
44. Cc1cccc(Nc2nccc(-n3ccc(C)n3)n2)c1 [CBK288616]  144.977%
45. Cc1ccc(-n2nnc(C(=O)N3CCCCC3C(=O)O)c2C)cc1 (stereo not drawn) [CBK304109]  146.994%
46. Cn1cnc2ccc(NC(=O)CC3CCN(C(=O)CC4CCCCC4)CC3)cc21 [CBK285961]  149.641%
47. COCCN1C(=O)CN(Cc2ccccc2)C1=O [CBK162369]  157.5%
48. Cc1ccc(C)c(OCCNCc2ccco2)c1Cl [CBK269718C]  162.847%
49. CCN1C(=O)C2(CC(=O)N(Cc3ccccc3)C2=O)c2cc(Cl)ccc21 (stereo not drawn) [CBK075233]  163.974%
50. FC(F)(F)c1ccccc1NC(=S)Nc1ncn(Cc2ccc(Cl)c(Cl)c2)n1 [CBK267130]  173.511%
51. c1ccc2sc(-c3cc(Nc4ccc5[nH]ccc5c4)ncn3)cc2c1 [CBK090858]  184.046%
